The chains are these.
B1: il10ra_site1_normal_mot_HHH_b2_07488_000000216_0001_1_17_H_._HHH_b1_03361_0001_0000300038_0000001_0_af2pred_0001 (protein)
chain: SSSSSKLKELVELALRFIQRLIEEGDEEAAKFMLKAARELAEDLNDEELQEEIERLEEELNSSSS
B2: il10ra_site1_sap_12_mot_HHH_b1_06816_000000239_0001_1_19_H_._HHH_b2_06625_0001_0000400017_0000001_0_0001_af2pred_0001 (protein)
chain: SSSSSDAQREIQRLLRRAFELLEDGDPEEAEEVLREAEELAREANDELLERLVELLKRQINSSSS
B3: il10ra_site1_normal_mot_HHH_b2_04327_000000030_0001_41_55_H_._HHH_b2_04747_af2_0001_0000200010_0000002_0 (protein)
chain: SSSSSSDLEERLEELLEELEKAKTLEEIARIVIEAVRIATRLRDDELFEELWKLARKLFSSSSSS
B4: il10ra_site1_sap_23_mot_HHH_b2_01705_af2_000000069_0001_44_57_H_._HHH_b1_00774_0001_0000100006_0000002_0_0001_af2pred_0001 (protein)
chain: SSSSTAFERIVELAIAAAELLIKAGDPEKARRAIEIAERNVERLGNEELLRKLEEVEEELNSSSS
B5: il10ra_site1_sap_15_mot_HHH_b1_08125_af2_000000160_0001_1_19_H_._HHH_b1_04040_0001_0000100003_0000002_0_0001_af2pred_0001 (protein)
chain: SSSSSSQEETEARAILFFAKFSSNPDARRLALEMALEIARRLGDEELEEEIERLLEEINSSSSSS
B6: il10ra_site1_normal_mot_HHH_b1_04100_af2_000000180_0001_1_19_H_._HHH_b2_04370_0001_0000100007_0000002_0_af2pred_0001 (protein)
chain: SSSSDDAERSLRRLLEAIRYALEQGDEEIAKLALSSARHLAEYLGDEEALEELEEILKKLSSSSS
B7: il10ra_site1_sap_21_mot_HHH_b1_05522_af2_000000086_0001_1_15_H_._1fb36719620bfed6e915f7538ef129cd_0001_af2_0001_0000400011_0000001_0_0001 (protein)
chain: SSSSSSVEELAEEAEQLARERGDEEALELVEAIERLMKQGILDPEWAEMSLKALIRILQESSSSS
B8: il10ra_site1_sap_19_mot_HHH_b2_00856_af2_000000075_0001_1_20_H_._HHH_b2_05867_0001_0000200023_0000002_0_0001_af2pred_0001 (protein)
chain: SSSSSSTEEEIREIVRELAEEFGLDEEVIRAVIIAAKRNGASERQIELIIRFLAMARESSSSSSS
B9: il10ra_site1_sap_21_mot_ems_4hM_4976_0002_af2_000000176_0001_48_63_H_._d30c92881be5d2f229e465dffc40e224_0001_af2_0001_0001100022_0000001_0_0001 (protein)
chain: SSSSDLEEEVEELLEELKQAKSREEFARLALEVLRVAIQSNDPELLEEVWEVIKRVAERLSSSSS
B10: il10ra_site1_normal_mot_HHH_b1_05021_af2_000000167_0001_42_56_H_._HHH_b1_07521_af2_0001_0000100005_0000001_0_af2pred_0001 (protein)
chain: SSSSSEEARRIIELIRKAIKLEVEENNPEEAEEVLREAEELARENGDELLLFLVERLLELLSSSS
B11: il10ra_site1_normal_mot_HHH_b2_03220_af2_000000223_0001_23_40_H_._HHH_b2_06254_0001_0000100011_0000001_0 (protein)
chain: SSSSSNEEVWELIREALELLANGNPEEAREVLEEARELAEELNNFAARFAIRQLERAVESSSSSS
B12: il10ra_site1_normal_mot_HHH_b2_07569_000000265_0001_38_56_H_._HHH_b1_08651_af2_0001_0000100005_0000002_0 (protein)
chain: SSSSSSDAAELAAEALRLAFRLGDEEAVQEIWELFRRYFEEGDPRYEEALEELIEELRSSSSSSS
B13: il10ra_site1_sap_27_mot_HHH_b2_02053_af2_000000006_0001_3_19_H_._HHH_b1_05377_0001_0000200016_0000001_0_0001 (protein)
chain: SSSSSSDEEEELKELLEELQKSPDPEERLELALRIIELAFQVGDEEVLRELWRLVKELSSSSSSS
B14: il10ra_site1_sap_17_mot_HHH_b2_00479_000000091_0001_1_12_H_._HHH_b2_00819_0001_0000100002_0000001_0_0001 (protein)
chain: SSSSSDENRQLYRLSREALELLRRGNPEEAEKILEEAIELAEEAGNRLMLHNLRFILKDVRSSSS
B15: il10ra_site1_sap_20_mot_HHH_b2_02463_af2_000000222_0001_1_19_H_._HHH_b1_01108_0001_0000200012_0000001_0_0001_af2pred_0001 (protein)
chain: SSSSSSEEIAELIREALELDRKGNPEEAQKLLEEAEKLAEEANNLVLRIAVEKALKNLEGSSSSS
B16: il10ra_site1_normal_mot_8756ee2cf497b5429c717dfc0c0bcfd6_0001_000000186_0001_1_13_H_._HHH_b2_04770_af2_0001_0000500021_0000001_0 (protein)
chain: SSSSSTHEVLERVIELIRRAAQITDEEELKEVLEEAQELAEELGNDVLRVQVEYLLRSLTSSSSS
B17: il10ra_site1_normal_mot_HHH_b1_06994_000000193_0001_40_55_H_._HHH_b2_01485_0001_0000100004_0000001_0 (protein)
chain: SSSSDEEELLEAVERLIEQAIKNGDPRAARFLVIALKILARDNNDPEAEEEAERLEELVEKSSSS
B18: il10ra_site1_sap_15_mot_HHH_b2_03038_000000109_0001_1_20_H_._HHH_b2_05569_0001_0000400030_0000002_0_0001 (protein)
chain: DEELVELARLLLEGDPRAAMELIHLYALIHQGDPEAERELEEAIKLAEELGDEDVVIILRALLEQ
B19: il10ra_site1_normal_mot_HHH_b2_08186_000000021_0001_43_56_H_._HHH_b2_01697_0001_0000200003_0000002_0 (protein)
chain: SSSSSSEEEEVREEVEELLERAQRVDREEAFRLLQEALRLAFEVSDPELLRAIWEVLRELSSSSS

For orientation: apparent Kd means a dissociation constant that holds for the conditions of the assay.

This is one part of the list.

The target in the experiment is il10ra, Q13651. Put plainly: yeast display titration.
In the case of B1, the “apparent Kd” value was “inactive: no binding seen”. Consider B2, for which the “apparent Kd” value was “inactive: no binding seen”. B3: the “apparent Kd” value was “inactive: no binding seen”. As for B4, the “apparent Kd” value was “inactive: no binding seen”. As for B5, the apparent Kd is inactive: > 276 nM. The result for B6 reads “inactive: no binding seen”; that for B7, “inactive: no binding seen”; that for B8, “inactive: no binding seen”. As to B9, the “apparent Kd” value is “inactive: no binding seen”. In the case of B10, the “apparent Kd” value is “inactive: no binding seen”. The result for B11 reads “inactive: no binding seen”; that for B12, “inactive: no binding seen”; that for B13, “inactive: no binding seen”.

Take B14: the “apparent Kd” value was “inactive: no binding seen”. Regarding B15, the “apparent Kd” value is “inactive: no binding seen”. As for B16, the “apparent Kd” value is “inactive: no binding seen”.

For the molecule B17, the “apparent Kd” value is “inactive: no binding seen”. For B18, the “apparent Kd” value is “inactive: no binding seen”. As for B19, the “apparent Kd” value was “inactive: no binding seen”.

These data come from PMC10163288.
